{"sequences": {"note": "The chains behind the UniProt entries cited, without tags or fusion partners.", "UniProt P08684, whole entry, looked up": "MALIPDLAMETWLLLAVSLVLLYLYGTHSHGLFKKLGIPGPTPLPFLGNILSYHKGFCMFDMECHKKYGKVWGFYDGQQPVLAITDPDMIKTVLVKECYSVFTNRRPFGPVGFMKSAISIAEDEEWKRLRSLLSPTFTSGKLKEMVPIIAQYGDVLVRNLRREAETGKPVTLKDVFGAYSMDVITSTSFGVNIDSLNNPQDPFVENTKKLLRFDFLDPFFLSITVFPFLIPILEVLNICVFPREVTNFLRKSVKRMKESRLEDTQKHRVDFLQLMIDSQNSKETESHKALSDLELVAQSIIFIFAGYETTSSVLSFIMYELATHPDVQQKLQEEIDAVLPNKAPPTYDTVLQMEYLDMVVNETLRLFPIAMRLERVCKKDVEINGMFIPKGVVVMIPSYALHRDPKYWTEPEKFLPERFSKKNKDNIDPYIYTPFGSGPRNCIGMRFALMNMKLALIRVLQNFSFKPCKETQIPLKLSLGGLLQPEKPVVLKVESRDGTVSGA"}, "source": "paper PMC9124818", "about": "(Pharmacology Research & Perspectives, 2022)", "biological_target": "CYP3A4/5 (UniProt P08684)", "test": "Direct CYP450 inhibition in human liver microsomes (midazolam 1'-hydroxylation; testosterone 6β-hydroxylation)", "details": "substrate testosterone (6β hydroxylase activity), FFA up to 600 µM, nFFA up to 100 µM, tested form: HCl", "note": "Certain results were filed several times, with different values. This is not the full list of results. An entry can have further records. The values listed for one entry differ, and nothing given here explains why; some may be repeats, others may stem from another dose, organism or construct than stated."}
{"molecule": "CC(N)Cc1cccc(C(F)(F)F)c1.Cl", "note": "(stereo not shown) [nFFA, [1‐(3‐trifluoromethyl)phenyl]propan‐2‐amine hydrochloride]", "values": [{"measurement": "Inhibition (%)", "result": "up to 2.8% and 2.8%"}]}
